These are yes or no findings as the source states them, for the method shown. Some entries that bind do so weakly or less than the wild type. Tags and fused reporters may be left off the sequences shown.
T1: wild-type CNTFR-Fc (human, UniProt P26992 23-342)
T1 construct: also called wtCNTFR-Fc; not shown: Fc domain; captured with anti-mouse Fc antibody
T1 sequence: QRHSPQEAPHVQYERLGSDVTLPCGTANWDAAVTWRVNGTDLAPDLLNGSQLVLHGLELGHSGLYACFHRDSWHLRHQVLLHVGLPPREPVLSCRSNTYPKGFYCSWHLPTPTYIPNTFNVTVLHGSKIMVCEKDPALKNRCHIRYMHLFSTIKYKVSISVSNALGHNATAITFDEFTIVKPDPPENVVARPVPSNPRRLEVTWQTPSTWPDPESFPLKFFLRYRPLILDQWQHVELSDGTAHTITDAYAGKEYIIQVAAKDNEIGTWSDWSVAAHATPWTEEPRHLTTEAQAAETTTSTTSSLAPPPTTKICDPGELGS

T2: wild-type CNTFR-HIS (human, UniProt P26992 23-342)
T2 construct: also called wtCNTFR-HIS; HIS tagged CNTFR; not shown: HIS tag
T2 sequence: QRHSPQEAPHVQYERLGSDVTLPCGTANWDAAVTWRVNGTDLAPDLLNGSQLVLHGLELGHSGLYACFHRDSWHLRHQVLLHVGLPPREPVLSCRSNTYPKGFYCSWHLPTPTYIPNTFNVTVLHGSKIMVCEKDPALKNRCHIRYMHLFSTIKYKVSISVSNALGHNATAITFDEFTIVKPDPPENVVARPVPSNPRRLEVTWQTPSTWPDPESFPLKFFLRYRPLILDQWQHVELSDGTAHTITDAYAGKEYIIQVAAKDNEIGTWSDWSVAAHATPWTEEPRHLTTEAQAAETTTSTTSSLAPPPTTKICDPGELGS


Legend:
[1] = target: T1, wild-type CNTFR-Fc; experiment: sandwich ELISA, soluble CLCF1 titrated against 2 nM CNTFR-Fc, anti-mouse-Fc capture, anti-CLCF1 detection
Procedure: The CLCF1 variants isolated from screening were cloned into the pET28b bacterial expression plasmid and expressed and purified. […] A sandwich ELISA was performed using an anti-mouse Fc antibody as a capturing agent for wtCNTFR-Fc, followed by an anti-CLCF1 antibody as a detection agent for the bound complex. […] ELISA was also used to measure binding interactions with the gp130 and LIFR beta receptors.
To measure the solution-phase binding interaction between the CLCF1 constructs and CNTFR, different concentrations of soluble, recombinant CLCF1 variants and wtCLCF1 were incubated with 2 nM CNTFR-Fc in BPBS for 12 h at room temperature. The mixture was then added to 96-well plates coated with anti-mouse-Fc antibody for 1 h followed by washing with BPBS twice. Subsequently, the wells were incubated with 1:1000 diluted anti-CLCF1 rabbit antibody for 2 h at room temperature then washed four times with BPBS. The wells were incubated with a 1:1000 diluted HRP conjugated anti-rabbit antibody for 2 h at room temperature, and washed four times with BPBS. 1-Step Ultra TMB ELISA was used for the readout, which was measured using a plate reader (Tecan).

[2] = target: T2, wild-type CNTFR-HIS; experiment: flow cytometry, yeast-displayed CLCF1 construct, soluble CNTFR-HIS titrated, anti-HIS Hilyte Fluor 488 detection
Procedure: Using equilibrium binding conditions and screened by flow cytometric sorting (FACS), high throughput screening of the CLCF1 library using wtCNTFR-HIS was performed to enrich variants showing increased CLCF1 binding. Expression signal was used to normalize CNTFR binding to distinguish high expressers from high affinity binders. Screening stringency was increased throughout sorting by decreasing the concentration of wtCNTFR-HIS incubated with the library. […] Thus a variant containing the three mutations (named FRR-CLCF1) was chosen for further characterization (FIG. 7).
Yeast displaying CLCF1 constructs were incubated with varying concentrations of CNTFR for 12 h at room temperature to reach equilibrium binding. This was followed by washing with BPBS and resuspension in PBSA with 1:500 ratio of chicken anti-c-Myc (Invitrogen) for 30 min at 4 C. Yeast were then washed and pelleted, and secondary labeling was performed on ice for 30 min using PBSA with 1:100 dilution of goat anti-chicken PE (Santa Cruz) and mouse anti-HIS Hilyte Fluor 488 (Anaspec). Then samples were washed and analyzed by flow cytometry using Accuri (BD Biosciences). Samples were analyzed on BD Bioscience software, and data were analyzed using FlowJo software. Kd values were determined by fitting to a four-parameter sigmoidal curve. Error bars represent the standard deviation of triplicate experiments.

[3] = target: T2, wild-type CNTFR-HIS; experiment: flow cytometry, yeast-displayed CLCF1 construct, soluble CNTFR titrated

Binder | binding [1] | binding [2] | binding [3]
v1 (ligand) soluble CLCF1 variant: LNRTGDPGPGPSIQKTYDLTRYLEHQLRSLAGTYLNYLGPPFNEPDFNPPRLGAETLPRATVDLEVWRSLNDKLRLTQNYEAYSHLLCYLRGLNRRAATAELRRSLAHFCTSLQGLLGSIAGVMAALGYPLPQPLPGTEPTWTPGPAHSDFLQKMDDFWLLKELQTWLWRSAKDFNRLKKKMQPPAAAVTLHLGAHGF | binds |  | 
v2 (ligand) CLCF1 variant displayed on yeast as Aga2p fusion with c-myc tag: LNRTGDPGPGPSIQKTYDLTRYLEHQLRSLAGTYLNYLGPPFNEPDFNPPRLGAETLPRATVDLEVWRSLNDKLRLTQNYEAYSHFLCYLRGLNRRAATAELRRSLAHFCTSLQGLLGSIAGVMAALGYPLPQPLPGTEPTWTPGPAHSDFLQKMDDFWLLKELQTWLWRSAKDFNRLKKKMQPPAAAVTLHLGAHGF | binds | binds | 
v3 (ligand) CLCF1 variant displayed on yeast as Aga2p fusion with c-myc tag: LNRTGDPGPGPSIQKTYDLTRYLEHQLRSLAGTYLNYLGPPFNEPDFNPPRLGAETLPRATVDLEVWRSLNDKLRLTQNYEAYSHLLCYLRGLNRRAATAELRRSLAHFCTSLQGLLGSIAGVMAALGYPLPQPLPGTEPTWTPGPARSDFLQKMDDFWLLKELQTWLWRSAKDFNRLKKKMQPPAAAVTLHLGAHGF | binds | binds | 
v2 (ligand) CLCF1 variant displayed on yeast as Aga2p fusion with c-myc tag: LNRTGDPGPGPSIQKTYDLTRYLEHQLRSLAGTYLNYLGPPFNEPDFNPPRLGAETLPRATVDLEVWRSLNDKLRLTQNYEAYSHFLCYLRGLNRRAATAELRRSLAHFCTSLQGLLGSIAGVMAALGYPLPQPLPGTEPTWTPGPARSDFLQKMDDFWLLKELQTWLLRSAKDFNRLKKKMQPPAAAVTLHLGAHGF |  |  | binds
v3 (ligand) CLCF1 variant displayed on yeast as Aga2p fusion with c-myc tag: LNRTGDPGPGPSIQKTYDLTRYLEHQLRSLAGTYLNYLGPPFNEPDFNPPRLGAETLPRATVDLEVWRSLNDKLRLTQNYEAYSHFLCYLRGLNRRAATAELRRSLAHFCTSLQGLLGSIAGVMAALGYPLPQPLPGTEPTWTPGPARSDFLQKMDDFWLLKELQTWLWRSAKDFNRLKRKMQPPAAAVTLHLGAHGF |  |  | binds

— patent US20190328837A1 (Stanford University, published 2019)
